# Measurements as given in the supplement of paper PMC5949888.
# Most values lie at the floor of the assay. Slopes are relative: functional sequences can read slightly below zero.
# Tested on: Saccharomyces cerevisiae PS128 hsf1 delta, HSF1(1-493) fusion
# Assay: growth estimate (transactivation domain function in HSF1 fusion, heat-shock survival) (a.u. (slope of normalised read count over time)); higher = stronger growth at 37°C, i.e. more transactivation activity
# Conditions: library: random library
row,Substance,growth estimate
1,RVNAGQPLHGRGSWPYFTPR,-0.198
2,GLKQGRIWTR,< -0.25
3,RAALMHVRQGIYADCRGAIE,< -0.25
4,KGVDWP,< -0.25
5,KTDRRPFIRHGTLCDYAGPT,< -0.25
6,GVGSRAGYEQRRRA,< -0.25
7,WNQIRSDGVSFRLRTCACGM,< -0.25
8,EVQGKSPWQD,< -0.25
9,YRAVGCRSGSHFVSSLTLDG,< -0.25
10,HSDM,-0.246
11,SCITYPVSLTM,< -0.25
12,PCVETAGPLVGYP,< -0.25
13,SRHYRFEERWSSTMGTQPPI,< -0.25
14,NSVTGGIASVSRRKSANLKD,< -0.25
15,RFQV,< -0.25
16,GVPST,< -0.25
17,SWIRFRAVYSLRVLLEARTE,< -0.25
18,LWYASRA,< -0.25
19,GLISLISYLSILPHPREHVA,< -0.25
20,RSGQGVQGTDTLRMDVLRAY,< -0.25
21,PSRAGSYETQRSARVQFLSY,< -0.25
22,YPSICRSSLKSALASRMGTV,< -0.25
23,CDKS,< -0.25
24,VPERE,< -0.25
25,LNLGPWKA,< -0.25
26,LTSQVNWWTDLFWVGVFRGT,< -0.25

# Copied from the list:
# growth estimate with LNLGPWKA is entered as < -0.25
# growth estimate with PSRAGSYETQRSARVQFLSY is entered as < -0.25
# growth estimate with GVGSRAGYEQRRRA is entered as < -0.25
# growth estimate with KGVDWP is entered as < -0.25
# growth estimate with VPERE is entered as < -0.25

# An excerpt of these results, bar-delimited.
row | Substance | growth estimate
15 | RFQV | < -0.25
16 | GVPST | < -0.25
17 | SWIRFRAVYSLRVLLEARTE | < -0.25
18 | LWYASRA | < -0.25
19 | GLISLISYLSILPHPREHVA | < -0.25
20 | RSGQGVQGTDTLRMDVLRAY | < -0.25

# (continued)

row,Substance,growth estimate
1,SCKRLNP,< -0.25
2,ASTNTVAAQRGFRAEEPYAP,< -0.25
3,GGLGNFSLSESIGLSGSELA,< -0.25
4,RFMDRRR,< -0.25
5,DQRAKSSSRGTWSLAATPPR,< -0.25
6,SWLTGQRVGKASGFLEELGK,< -0.25
7,PVRGIGGWLVLR,< -0.25
8,RYGLSVDPACPGSTCCFNSV,< -0.25
9,EPSISNRLSKFRRPRS,< -0.25
10,FSRSRFLRYLNATPAISAGA,< -0.25
11,LRTRPSLDA,< -0.25
12,TPPAETIRSFL,-0.246
13,VEGF,< -0.25
14,MVSPPFRGGFSGRSPLRTAY,< -0.25
15,STALPCFHSP,< -0.25
16,GEHKCPVESAEFWIAQARPR,< -0.25
17,FGIRCVIDVEGTKLSEFLFT,< -0.25
18,STETGVLPGYAHSEALTAGP,< -0.25
19,SLPILEHVWSLCILGVPLHQ,< -0.25
20,GTITR,< -0.25
21,LLAYPDRLEGWYYHRGHHTG,< -0.25
22,VLGFQCYVTFVKC,< -0.25
23,QESLWADAVLHSRF,< -0.25
24,AVRHLFPMR,< -0.25
25,RDRLKTDAIRSPGSFASLVH,< -0.25
26,VQVPTVA,< -0.25

row,Substance,growth estimate
1,PFRGSNSRNSPLRSRAKRPR,< -0.25
2,RDPVCWAK,< -0.25
3,VGC,< -0.25
4,RAGVHVPNVLQRRSVSFYRV,< -0.25
5,NNTGRIAIGIP,< -0.25
6,DVRKGKLRESRRQEVD,< -0.25
7,RHLSFSLFGKQRMGSPGRGS,< -0.25
8,VGKPVVPVSTGVAITRMGHD,< -0.25
9,SLGGPQWTS,< -0.25
10,REYHAGNDVLKRQCKLLEAR,< -0.25
11,RITKTSKVASQAVLAMPSLL,< -0.25
12,FGYAVPQTLQKFLARPPRFA,< -0.25
13,TLY,< -0.25
14,FHHDGITWPYITE,< -0.25
15,GGNENCREAIPIPQRRDCAW,< -0.25
16,LRGPCGFIRP,< -0.25
17,PSASRSEDSV,< -0.25
18,SVRFTPHTGGMGIGL,< -0.25
19,DCIRVRVTKAERKLRGSALS,< -0.25
20,LQVPPEPVLDARSSLLGLVQ,< -0.25
21,ELRLKS,< -0.25
22,YEFAPC,< -0.25
23,CLYVYRLHHDFHRRKLPNDG,< -0.25
24,RGCNIGIDFLVSPYAPVPT,< -0.25
25,ELGYGMLVEELTLVQWPRRV,< -0.25
26,WYS,< -0.25

row,Substance,growth estimate
1,AVES,< -0.25
2,YMKRSKSGNWDVLWLYILET,< -0.25
3,IYLVRMR,< -0.25
4,SRAMI,< -0.25
5,RPPGSDVWEPCPSCGVDKSV,< -0.25
6,HVLFG,< -0.25
7,RLWATRLSIHGSTDGTLVVW,< -0.25
8,IILVGS,< -0.25
9,QTSGAVRS,< -0.25
10,DIVSPIEEANYLLDFGNLNV,< -0.25
11,RHTER,< -0.25
12,TWGNRCYVSLKRRNRPSSMG,< -0.25
13,HTCQGDARRSWCKGKKRRSV,< -0.25
14,LLVAIREGTLCFEVGWSVAK,< -0.25
15,ILGCIFGSIIGTKHSTAAFM,< -0.25
16,ALGLYGEG,< -0.25
17,IMSLNSFPGRAKQKTSTFCD,-0.245
18,GNSYVGH,< -0.25
19,WVSGLGQRERVRTAINCEQK,< -0.25
20,GGELCENNARSS,< -0.25
21,SATVGLRKADASRGLEW,< -0.25
22,HCVGLGKA,< -0.25
23,PSVDKYPQWLPQLVGATSGK,< -0.25
24,KVGTGEEVSMGGHIGKN,< -0.25
25,TQYNRANAGISFKHLTRPPA,< -0.25
26,ECGVGMWTPTVSIGAPNNGT,< -0.25

row,Substance,growth estimate
1,LNSLAVNCFTGSRESCLVTQ,< -0.25
2,LLITDDLRSSTGLICPAVLV,< -0.25
3,PYSPVRPTFSQATMDTCPTR,< -0.25
4,EYMRSVMA,< -0.25
5,YDISEIRAWLRDSRRAAPSP,< -0.25
6,FTS,< -0.25
7,GRETRSPVGARKETMTGSAI,< -0.25
8,GYRDEGARDRFLVGLAGRGG,< -0.25
9,LVCRL,< -0.25
10,YIDQLKVRKITRRVGYRRTL,< -0.25
11,CGYPTYKSCRGMGISPRPYQ,< -0.25
12,VVTLQRGLWGRRCQY,< -0.25
13,YCSVFRCREPGVFCHPTPFA,< -0.25
14,SMVRKNILNCRWDYGLLTSG,< -0.25
15,GGST,< -0.25
16,VQLRGLLDSVSSGPVAGGTA,< -0.25
17,GVEMAT,< -0.25
18,SVGTSALTNRI,< -0.25
19,VAL,< -0.25
20,RSWQTNNRTA,0.0138
21,CGSSSPIEANLRYMSSRYLL,< -0.25
22,LCYGPS,< -0.25
23,HRQM,< -0.25
24,PKILLT,< -0.25
25,VRRVIAEDGVH,< -0.25
26,ELLPTGPPRCTCNTVRSK,< -0.25

row,Substance,growth estimate
1,PPNPSATKGSGNGILKGVNR,< -0.25
2,RSPRDCSLSVPDSCRLSVAA,< -0.25
3,LYHNGYARGTRLLGGV,< -0.25
4,GNLYRG,-0.248
5,GHTAVPSRPWGQSGLALE,< -0.25
6,WGSLCLDQGSGGPVAEANPR,< -0.25
7,RRTGVGQ,< -0.25
8,SGLSGGATGQPCKHFVPGGV,< -0.25
9,GGKVKRLKVNVVRHRRCLRR,< -0.25
10,TQLASGRLR,< -0.25
11,EISGYCGKPSGVHHLGEI,< -0.25
12,DYSGSYAETGGPLGAEIPTS,< -0.25
13,RTVRTETLWGGEELCGPIPG,< -0.25
14,FEIFIDNPSRRIV,< -0.25
15,TPNRALRLRCEVRHVINVGQ,< -0.25
16,ENGPEFL,< -0.25
17,NRHGETSYQTVVDSAPLSIL,< -0.25
18,RGTPHIFMQSKVSNDPEDDL,< -0.25
19,GKRRQLPISPRDFSGIARAR,< -0.25
20,ALLQGATATDGGHPA,< -0.25
21,GRPRKVVPR,< -0.25
22,VELCGGWRPERA,< -0.25
23,VGRPY,< -0.25
24,DCNYRLYPTCGY,< -0.25
25,IRG,< -0.25
26,YEQSGMFLSVRH,< -0.25

row,Substance,growth estimate
1,LFRAGEAYYFDLRH,< -0.25
2,FSLMSRCNGSPYLPSPE,< -0.25
3,HRIVQVELKVAYIPTIL,< -0.25
4,KPCPLHPHEGARG,< -0.25
5,GSSSLSQANCHSEG,< -0.25
6,RSKVALFRAKNDCVLVAQDD,< -0.25
7,TAGAGSGRRGTILQAGDSHG,< -0.25
8,SYSFGKLYPERFRLL,< -0.25
9,PARPYVGVTLDQCAV,< -0.25
10,HRKRSSNVSPGPLWRKPASN,-0.0091
11,SVCYVPLDQWTDESV,-0.243
12,TSPPRKV,-0.245
13,VLLIFPRTPTYLRRNMVWPI,< -0.25
14,RGGWVLTRRTCAVMCVFLSI,1.05
15,VSGISGFERVWIVVR,< -0.25
16,VEGR,< -0.25
17,VSGHGDIAFREDPTGAKRAY,< -0.25
18,FVP,-0.24
19,HDMF,< -0.25
20,LHKIKDSTFVS,< -0.25
21,SIATQDYYWVPQTASI,< -0.25
22,LTFV,< -0.25
23,DSGI,< -0.25
24,SMPYDRWERATR,< -0.25
25,TILDISTPPHRGLKVQVSPP,< -0.25
26,MIDRHRCLGKGR,< -0.25

row,Substance,growth estimate
1,KCLDCVLFPDLTVGRRVI,< -0.25
2,TPKGQNRLGLSLPGVKSHSA,< -0.25
3,RIIDVNRKLETLGFYNRCSE,< -0.25
4,AWHCVRRLAIVALNNVRR,< -0.25
5,CETGTMRTL,< -0.25
6,NPE,< -0.25
7,SSFTW,< -0.25
8,AREQYAYVRFTPH,-0.231
9,IGRKSLLPCSGLAIV,< -0.25
10,TGSSWTNISFRRAQIPQATT,< -0.25
11,NRLLARRHMRVSRCSATSLV,< -0.25
12,PVIAECCG,< -0.25
13,SAVTFEKVISYSQKAQETYY,-0.245
14,LVGMLTRRP,< -0.25
15,SCHETDWYHPNR,-0.246
16,VGWV,< -0.25
17,FPSPKL,< -0.25
18,CHFLLYNLHL,< -0.25
19,SAARSAFFEHLCRNALPLAL,< -0.25
20,VFC,< -0.25
